Measurements from publication PMC6521040.
Results are given in words; binding and its absence hold for the method and conditions named.

Molecular target: CbtA (Ea), CbtA toxin from Erwinia amylovora strain CTBT3-1 (Erwinia amylovora strain CTBT3-1)
Assay: two-hybrid; GAL4 DNA binding domain bait and activation domain prey fusions co-transformed into S. cerevisiae strain Y2H gold; growth on SD/-Leu/-Trp and SD/-Leu/-Trp/-His plates, 30 °C, 3 days

B1: MreB (Ea), cytoskeletal protein MreB from Erwinia amylovora strain CTBT3-1 (protein, UniProt A0ABX7MI44 1-347)
chain: MFKKFRGMFSNDLSIDLGTANTLIYVKGQGIVLNEPSVVAIRQDRAGSPKSVAAVGHDAKQMLGRTPGNIAAIRPMKDGVIADFFVTEKMLQHFIKQVHSNSFMRPSPRVLVCVPVGATQVERRAIRESAQGAGAREVFLIEEPMAAAIGAGLPVSEATGSMVVDIGGGTTEVAVISLNGVVYSSSVRIGGDRFDEAIINYVRRNYGSLIGEATAERIKHGIGSAYPGDEVREIEVRGRNLAEGVPRGFTLNSNEILEALQEPLTGIVSAVMVALEQCPPELASDISERGMVLTGGGALLRNLDRLLMEETGIPVVVAEDPLTCVARGGGKALEMIDMHGGDLFSEE
- binding: no binding
